This note sets out measurements from patent US20240010748A1.

Sequences of proteins named here, by UniProt entry; tags and fusion partners are left off. A change or cut given only in a name is not applied to a line headed by its entry. A line that says so, or that is headed by a name, gives the form on record, which may keep a tag or linker.
human Claudin 18.2 (hCLDN18.2) on stably-transfected HEK293 cells (P56856, form named): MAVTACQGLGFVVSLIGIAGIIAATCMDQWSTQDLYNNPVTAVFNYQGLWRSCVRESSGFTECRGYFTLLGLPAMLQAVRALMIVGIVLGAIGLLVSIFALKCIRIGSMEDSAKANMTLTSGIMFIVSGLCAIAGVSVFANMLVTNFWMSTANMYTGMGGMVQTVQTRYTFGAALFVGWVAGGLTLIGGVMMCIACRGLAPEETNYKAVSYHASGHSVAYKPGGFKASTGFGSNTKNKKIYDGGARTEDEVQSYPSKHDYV

For this assay, the target named is human Claudin 18.2 (hCLDN18.2) on stably-transfected HEK293 cells (human) (UniProt P56856). As to the kind of experiment: FACS on HEK293-hCLDN18.2 cells, fluorescent anti-human IgG secondary antibody.

Results are given in words; binding and its absence hold for the method and conditions named.

B1: h160C9AA (antibody, human IgG1, lambda, L234A L235A, V domains shown)
VH: EVKLVESGGGLVQPGGSLKLSCAASGFTFNTYAMNWVRQAPGKGLEWVARIRSKYNNYATYYADSVKDRFTISRDDAKNTLYLQMNNLRTEDTAVYYCVRHGNFGNSYVSWFAYWGQGTLVTVSS
VL: QAVVTQEPSLTVSPGGTVTLTCRSSTGAVTTSNYANWVQQKPGQAPRGLIGGTNKRAPGTPARFSGSLLGGKAALTLSGAQPEDEAEYYCALWYSNLWVFGGGTKLTVLG
Regarding B1, the binding entry is “no binding (tested: 1e-7 M (log M -7))”.
